Consider 42 compounds from PubChem BioAssay AID662 (National Center for Advancing Translational Sciences (NCATS), 2007).

A word on the AC50: it is the midpoint of the concentration-response curve, whichever way the signal moves.

This is one part of the list. These are further read-outs of the screen, such as a control signal, another cell line or another target. No call is given for them. Compounds called inactive in the main read-out are mostly missing here. The note in brackets gives the kind of curve behind each potency; many fits are weak.

The test can be described thus: Cell signaling CRE-BLA (Fsk stim). Particulars: CHO CRE-bla reporter (cAMP response element driving beta-lactamase), forskolin EC10, beta-lactamase ratio; measured here: 460 nm blue channel. Put shortly:
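Beta-lactamase reporter under a cAMP responsive element in CHO cells; compounds tested in titration series against EC10 NKH 477, 3 h at 37 °C. Read-out: CCF4 FRET ratio 460nm/530nm (excitation 405nm) giving %Activity, fitted to AC50.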
`CCOc1cc2[nH]c(=O)n(CCC(=O)NCCc3ccccc3)c(=O)c2cc1OCC`: the AC50 is 5.01 µM [falling, single point].
The value for `CCOC(=O)c1ccc(NC(=O)c2c(O)c3ccccc3n(C)c2=O)cc1` was 20 µM [falling, single point]; that for `COC(=O)c1c(NC(=O)CSc2nnnn2C)sc(C)c1C` was 10 µM [rising, partial curve]; that for `Cc1ccc(S(=O)(=O)N(C)c2ccc(OCC(=O)OCc3c(C)noc3C)cc2)cc1` was 5.01 µM [falling, single point].
The same measure for `COc1ccc(-n2c3c(cc(C(=O)NC4CCSC4=O)c2=O)C(=O)CC(C)(C)C3)cc1` (configuration not stated): 0.00316 µM [falling, full curve, poor fit]; for `N#CCCn1c(=O)c(CCc2ccccc2)nc2cnc(Oc3ccccc3)nc21`: 0.126 µM [falling, single point]; for `CCCCNS(=O)(=O)c1ccc2nc(SCC(=O)c3ccc(C#N)cc3)[nH]c2c1`: 3.98 µM [falling, single point].
Take `COc1cc(-c2nn3c(Cc4ccccc4)nnc3s2)cc(OC)c1OC`: the AC50 was 0.501 µM [rising, full curve].
In the case of `Cn1c(C(=O)N2CCN(c3ncccn3)CC2)cc2c(=O)n(C)c3ccccc3c21`, the AC50 was 3.98 µM [rising, single point].
The value for `CCc1nc(NCc2ccco2)c2oc3ccccc3c2n1` was 3.16 µM [rising, full curve]; that for `Cn1c(=O)c2cc(S(=O)(=O)NCCC(=O)N3CC=C(c4ccccc4)CC3)ccc2n(C)c1=O` was 25.1 µM [rising, single point].
The value for `OCCn1c(CSc2nnc(-c3ccco3)n2-c2ccccc2)nc2ccc(Cl)cc21` was 0.398 µM [rising, full curve]; that for `N=P(N1CCOCC1)(N1CCOCC1)C12CC3CC(CC(C3)C1)C2` was 5.01 µM [falling, single point]; that for `Cc1ccc(-c2cc(C(F)(F)F)n3ncc(C(=O)NCc4ccco4)c3n2)cc1` was 0.398 µM [rising, partial curve].
The same measure for `CCCCN(C(=O)NC(=O)C1=C(N2CCOCC2)/C(=C/c2ccccc2)CC1)S(C)(=O)=O`: 12.6 µM [rising, single point].
As to `Cc1ccc(-n2c(N)c(C(=O)N3CCN(C)CC3)sc2=S)cc1`, the concentration at half-maximal activity (AC50) was 10 µM [rising, single point].
The value for `Cn1c2ccccc2c2ncn(CCN3CCOCC3)c(=O)c21` was 25.1 µM [rising, single point].
The same measure for `COc1ccc(CCNC(=O)C2CC(=O)N(c3ccccc3)C2)cc1OC` (configuration not stated): 0.631 µM [falling, partial curve].
The value for `COc1cc2c(cc1OC)CN(C(=O)c1ccc(OC)c(S(=O)(=O)N3CCOCC3)c1)CC2` was 25.1 µM [rising, single point].
Take `CCOC(=O)C1CCN(C(=O)Cc2c(F)cccc2Cl)CC1`: the AC50 was 0.00794 µM [falling, full curve].
The value for `O=C(Nc1nc(-c2cccs2)cs1)c1cccc(S(=O)(=O)N2CCCCCC2)c1` was 25.1 µM [falling, single point]; that for `Cc1ccc2nc3ccc(N4CCCC4)nn3c(=O)c2c1` was 12.6 µM [rising, partial curve]; that for `COc1ccc(N2CSC3=C(C#N)C(c4ccc(OC)c(OC)c4)CC(=O)N3C2)c(OC)c1` (configuration not stated) was 12.6 µM [rising, single point].
The value for `CC1(C)Cc2c(C#N)c(NC3CCCCC3)nc(-c3ccco3)c2CO1` was 3.16 µM [rising, partial curve]; that for `CCC(C)Sc1nc2c(c(=O)[nH]c(=O)n2C)n1Cc1ccc(Cl)cc1` (configuration not stated) was 5.01 µM [rising, partial curve].
The same measure for `Cc1ccc(-c2csc(N3CCC(NS(=O)(=O)c4ccc5c(c4)OCCO5)CC3)n2)cc1`: 7.94 µM [falling, partial curve]; for `O=C(CCSCc1ccccc1F)N1CCN(c2ccccn2)CC1`: 25.1 µM [falling, single point]; for `Cc1cccc2sc(NC(=O)CNS(=O)(=O)c3ccc(Br)s3)nc12`: 0.251 µM [falling, full curve].
For `COc1cc(C2c3c(oc4c(C)cc(C)cc4c3=O)C(=O)N2Cc2cccnc2)ccc1O` (configuration not stated), the AC50 was 6.31 µM [rising, partial curve].
The value for `COc1cccc(CN2CCN(CC(=O)Nc3ccccc3Cl)CC2)c1` was 25.1 µM [falling, partial curve]; that for `C=CCn1c(CCNC(=O)c2cccs2)nnc1SCC(=O)Nc1cccc(C(C)=O)c1` was 25.1 µM [rising, single point]; that for `O=C(Nc1ccncc1)c1c(F)cccc1F` was 5.01 µM [falling, partial curve].
Regarding `COCCOc1ccc(C(F)(F)F)cc1NC(=O)COC(=O)c1c(C)noc1C`, the AC50 is 10 µM [rising, single point].
The value for `CCOc1ccc2[nH]c(C)c(CN3CCCCC3)c(=O)c2c1` was 7.94 µM [rising, partial curve, poor fit].
The value for `COc1ccc(-c2nnc3sc(C(C)N4C(=O)c5ccccc5C4=O)nn23)cc1` (configuration not stated) was 10 µM [rising, partial curve].
The same measure for `Cc1cccc(CNc2cc(-c3cccnc3)ncn2)c1`: 7.94 µM [rising, partial curve]; for `COc1ccccc1-c1cc(C(=O)Nc2cccnc2)no1`: 25.1 µM [rising, single point]; for `COc1ccc(-c2cc(C(=O)NCCN3CCOCC3)c3ccccc3n2)cc1`: 12.6 µM [rising, single point].
For the compound `COc1ccc(Oc2ncc3nc(C)c(=O)n(Cc4cccc(OC)c4)c3n2)cc1`, the AC50 is 7.94 µM [rising, partial curve].
The same measure for `Cn1c(=O)c2c(SCc3cccnc3)nc(CC(C)(C)C)nc2n(C)c1=O`: 3.98 µM [rising, single point]; for `O=C(CSc1nnc(-c2ccc(Cl)cc2)n1Cc1ccco1)Nc1ccc2c(c1)OCCO2`: 0.501 µM [falling, full curve, poor fit]; for `Cc1ccc(-c2csc(/C(C#N)=C(\O)CN3CCN(C(=O)c4ccco4)CC3)n2)cc1`: 3.16 µM [rising, partial curve].
